Structures can show the parent of a compound that is named as a salt. Some of these results come from one statement about several compounds together.
System: femoral artery
Assay: Peripheral action of the compounds of Examples 1, 2 and 4 (femoral rate of flow, local peripheral resistance, blood pressure), 2.5 mg/kg
Format: in vivo, dogs
Conditions: for blood pressure: on injection
Procedure: The tests were conducted with pentobarbital anesthetized dogs (35 mg/kg/i.v.) under artificial respiration with pentobarbital infusion (5 mg/kg/hr).
The carotid arterial pressure was recorded by means of an electromagnetic capsule connected to the carotid artery. From said determination were calculated the mean blood pressure, the systolic pressure, the diastolic pressure and the pulse pressure.
The femoral rate of flow was recorded by means of an electromagnetic sensor placed around the femoral artery. Local peripheral resistance was calculated from said parameters.

CC(=O)C(c1ccccc1)N1CCN(CCOc2ccccc2)CC1 (stereo not drawn) [Example 1, 1-[N-(2-phenoxy-1-ethyl)piperazino]-1-phenylacetone]
duration of decrease of local peripheral resistance with concomitant increase of the femoral rate of flow: at least 30 minutes | blood pressure: transient decrease

CC(O)C(c1ccccc1)N1CCN(CCOc2ccccc2)CC1 (stereo not drawn) [Example 2, 1-[N-(2-phenoxy-1-ethyl)piperazino]-1-phenyl-2-propanol]
duration of decrease of local peripheral resistance with concomitant increase of the femoral rate of flow: at least 30 minutes | blood pressure: transient decrease

CCC(O)C(c1ccccc1)N1CCN(CCOc2ccccc2C)CC1 (stereo not drawn) [Example 4, 1-(N-[2-(2-methyl-1-phenoxy)-1-ethyl]piperazino)-1-phenyl-2-butanol dihydrochloride]
duration of decrease of local peripheral resistance with concomitant increase of the femoral rate of flow: at least 30 minutes | blood pressure: transient decrease

Reference: US4127661A, “Piperazine alkanols” (Serdex - Societe d'Etudes, de Recherches, de Diffusion et …, priority 1976, dated 1978)
